Experimental findings from paper PMC9044881 are described below.

Sequences of proteins named here, by UniProt entry; tags and fusion partners are left off.
UniProt O14686: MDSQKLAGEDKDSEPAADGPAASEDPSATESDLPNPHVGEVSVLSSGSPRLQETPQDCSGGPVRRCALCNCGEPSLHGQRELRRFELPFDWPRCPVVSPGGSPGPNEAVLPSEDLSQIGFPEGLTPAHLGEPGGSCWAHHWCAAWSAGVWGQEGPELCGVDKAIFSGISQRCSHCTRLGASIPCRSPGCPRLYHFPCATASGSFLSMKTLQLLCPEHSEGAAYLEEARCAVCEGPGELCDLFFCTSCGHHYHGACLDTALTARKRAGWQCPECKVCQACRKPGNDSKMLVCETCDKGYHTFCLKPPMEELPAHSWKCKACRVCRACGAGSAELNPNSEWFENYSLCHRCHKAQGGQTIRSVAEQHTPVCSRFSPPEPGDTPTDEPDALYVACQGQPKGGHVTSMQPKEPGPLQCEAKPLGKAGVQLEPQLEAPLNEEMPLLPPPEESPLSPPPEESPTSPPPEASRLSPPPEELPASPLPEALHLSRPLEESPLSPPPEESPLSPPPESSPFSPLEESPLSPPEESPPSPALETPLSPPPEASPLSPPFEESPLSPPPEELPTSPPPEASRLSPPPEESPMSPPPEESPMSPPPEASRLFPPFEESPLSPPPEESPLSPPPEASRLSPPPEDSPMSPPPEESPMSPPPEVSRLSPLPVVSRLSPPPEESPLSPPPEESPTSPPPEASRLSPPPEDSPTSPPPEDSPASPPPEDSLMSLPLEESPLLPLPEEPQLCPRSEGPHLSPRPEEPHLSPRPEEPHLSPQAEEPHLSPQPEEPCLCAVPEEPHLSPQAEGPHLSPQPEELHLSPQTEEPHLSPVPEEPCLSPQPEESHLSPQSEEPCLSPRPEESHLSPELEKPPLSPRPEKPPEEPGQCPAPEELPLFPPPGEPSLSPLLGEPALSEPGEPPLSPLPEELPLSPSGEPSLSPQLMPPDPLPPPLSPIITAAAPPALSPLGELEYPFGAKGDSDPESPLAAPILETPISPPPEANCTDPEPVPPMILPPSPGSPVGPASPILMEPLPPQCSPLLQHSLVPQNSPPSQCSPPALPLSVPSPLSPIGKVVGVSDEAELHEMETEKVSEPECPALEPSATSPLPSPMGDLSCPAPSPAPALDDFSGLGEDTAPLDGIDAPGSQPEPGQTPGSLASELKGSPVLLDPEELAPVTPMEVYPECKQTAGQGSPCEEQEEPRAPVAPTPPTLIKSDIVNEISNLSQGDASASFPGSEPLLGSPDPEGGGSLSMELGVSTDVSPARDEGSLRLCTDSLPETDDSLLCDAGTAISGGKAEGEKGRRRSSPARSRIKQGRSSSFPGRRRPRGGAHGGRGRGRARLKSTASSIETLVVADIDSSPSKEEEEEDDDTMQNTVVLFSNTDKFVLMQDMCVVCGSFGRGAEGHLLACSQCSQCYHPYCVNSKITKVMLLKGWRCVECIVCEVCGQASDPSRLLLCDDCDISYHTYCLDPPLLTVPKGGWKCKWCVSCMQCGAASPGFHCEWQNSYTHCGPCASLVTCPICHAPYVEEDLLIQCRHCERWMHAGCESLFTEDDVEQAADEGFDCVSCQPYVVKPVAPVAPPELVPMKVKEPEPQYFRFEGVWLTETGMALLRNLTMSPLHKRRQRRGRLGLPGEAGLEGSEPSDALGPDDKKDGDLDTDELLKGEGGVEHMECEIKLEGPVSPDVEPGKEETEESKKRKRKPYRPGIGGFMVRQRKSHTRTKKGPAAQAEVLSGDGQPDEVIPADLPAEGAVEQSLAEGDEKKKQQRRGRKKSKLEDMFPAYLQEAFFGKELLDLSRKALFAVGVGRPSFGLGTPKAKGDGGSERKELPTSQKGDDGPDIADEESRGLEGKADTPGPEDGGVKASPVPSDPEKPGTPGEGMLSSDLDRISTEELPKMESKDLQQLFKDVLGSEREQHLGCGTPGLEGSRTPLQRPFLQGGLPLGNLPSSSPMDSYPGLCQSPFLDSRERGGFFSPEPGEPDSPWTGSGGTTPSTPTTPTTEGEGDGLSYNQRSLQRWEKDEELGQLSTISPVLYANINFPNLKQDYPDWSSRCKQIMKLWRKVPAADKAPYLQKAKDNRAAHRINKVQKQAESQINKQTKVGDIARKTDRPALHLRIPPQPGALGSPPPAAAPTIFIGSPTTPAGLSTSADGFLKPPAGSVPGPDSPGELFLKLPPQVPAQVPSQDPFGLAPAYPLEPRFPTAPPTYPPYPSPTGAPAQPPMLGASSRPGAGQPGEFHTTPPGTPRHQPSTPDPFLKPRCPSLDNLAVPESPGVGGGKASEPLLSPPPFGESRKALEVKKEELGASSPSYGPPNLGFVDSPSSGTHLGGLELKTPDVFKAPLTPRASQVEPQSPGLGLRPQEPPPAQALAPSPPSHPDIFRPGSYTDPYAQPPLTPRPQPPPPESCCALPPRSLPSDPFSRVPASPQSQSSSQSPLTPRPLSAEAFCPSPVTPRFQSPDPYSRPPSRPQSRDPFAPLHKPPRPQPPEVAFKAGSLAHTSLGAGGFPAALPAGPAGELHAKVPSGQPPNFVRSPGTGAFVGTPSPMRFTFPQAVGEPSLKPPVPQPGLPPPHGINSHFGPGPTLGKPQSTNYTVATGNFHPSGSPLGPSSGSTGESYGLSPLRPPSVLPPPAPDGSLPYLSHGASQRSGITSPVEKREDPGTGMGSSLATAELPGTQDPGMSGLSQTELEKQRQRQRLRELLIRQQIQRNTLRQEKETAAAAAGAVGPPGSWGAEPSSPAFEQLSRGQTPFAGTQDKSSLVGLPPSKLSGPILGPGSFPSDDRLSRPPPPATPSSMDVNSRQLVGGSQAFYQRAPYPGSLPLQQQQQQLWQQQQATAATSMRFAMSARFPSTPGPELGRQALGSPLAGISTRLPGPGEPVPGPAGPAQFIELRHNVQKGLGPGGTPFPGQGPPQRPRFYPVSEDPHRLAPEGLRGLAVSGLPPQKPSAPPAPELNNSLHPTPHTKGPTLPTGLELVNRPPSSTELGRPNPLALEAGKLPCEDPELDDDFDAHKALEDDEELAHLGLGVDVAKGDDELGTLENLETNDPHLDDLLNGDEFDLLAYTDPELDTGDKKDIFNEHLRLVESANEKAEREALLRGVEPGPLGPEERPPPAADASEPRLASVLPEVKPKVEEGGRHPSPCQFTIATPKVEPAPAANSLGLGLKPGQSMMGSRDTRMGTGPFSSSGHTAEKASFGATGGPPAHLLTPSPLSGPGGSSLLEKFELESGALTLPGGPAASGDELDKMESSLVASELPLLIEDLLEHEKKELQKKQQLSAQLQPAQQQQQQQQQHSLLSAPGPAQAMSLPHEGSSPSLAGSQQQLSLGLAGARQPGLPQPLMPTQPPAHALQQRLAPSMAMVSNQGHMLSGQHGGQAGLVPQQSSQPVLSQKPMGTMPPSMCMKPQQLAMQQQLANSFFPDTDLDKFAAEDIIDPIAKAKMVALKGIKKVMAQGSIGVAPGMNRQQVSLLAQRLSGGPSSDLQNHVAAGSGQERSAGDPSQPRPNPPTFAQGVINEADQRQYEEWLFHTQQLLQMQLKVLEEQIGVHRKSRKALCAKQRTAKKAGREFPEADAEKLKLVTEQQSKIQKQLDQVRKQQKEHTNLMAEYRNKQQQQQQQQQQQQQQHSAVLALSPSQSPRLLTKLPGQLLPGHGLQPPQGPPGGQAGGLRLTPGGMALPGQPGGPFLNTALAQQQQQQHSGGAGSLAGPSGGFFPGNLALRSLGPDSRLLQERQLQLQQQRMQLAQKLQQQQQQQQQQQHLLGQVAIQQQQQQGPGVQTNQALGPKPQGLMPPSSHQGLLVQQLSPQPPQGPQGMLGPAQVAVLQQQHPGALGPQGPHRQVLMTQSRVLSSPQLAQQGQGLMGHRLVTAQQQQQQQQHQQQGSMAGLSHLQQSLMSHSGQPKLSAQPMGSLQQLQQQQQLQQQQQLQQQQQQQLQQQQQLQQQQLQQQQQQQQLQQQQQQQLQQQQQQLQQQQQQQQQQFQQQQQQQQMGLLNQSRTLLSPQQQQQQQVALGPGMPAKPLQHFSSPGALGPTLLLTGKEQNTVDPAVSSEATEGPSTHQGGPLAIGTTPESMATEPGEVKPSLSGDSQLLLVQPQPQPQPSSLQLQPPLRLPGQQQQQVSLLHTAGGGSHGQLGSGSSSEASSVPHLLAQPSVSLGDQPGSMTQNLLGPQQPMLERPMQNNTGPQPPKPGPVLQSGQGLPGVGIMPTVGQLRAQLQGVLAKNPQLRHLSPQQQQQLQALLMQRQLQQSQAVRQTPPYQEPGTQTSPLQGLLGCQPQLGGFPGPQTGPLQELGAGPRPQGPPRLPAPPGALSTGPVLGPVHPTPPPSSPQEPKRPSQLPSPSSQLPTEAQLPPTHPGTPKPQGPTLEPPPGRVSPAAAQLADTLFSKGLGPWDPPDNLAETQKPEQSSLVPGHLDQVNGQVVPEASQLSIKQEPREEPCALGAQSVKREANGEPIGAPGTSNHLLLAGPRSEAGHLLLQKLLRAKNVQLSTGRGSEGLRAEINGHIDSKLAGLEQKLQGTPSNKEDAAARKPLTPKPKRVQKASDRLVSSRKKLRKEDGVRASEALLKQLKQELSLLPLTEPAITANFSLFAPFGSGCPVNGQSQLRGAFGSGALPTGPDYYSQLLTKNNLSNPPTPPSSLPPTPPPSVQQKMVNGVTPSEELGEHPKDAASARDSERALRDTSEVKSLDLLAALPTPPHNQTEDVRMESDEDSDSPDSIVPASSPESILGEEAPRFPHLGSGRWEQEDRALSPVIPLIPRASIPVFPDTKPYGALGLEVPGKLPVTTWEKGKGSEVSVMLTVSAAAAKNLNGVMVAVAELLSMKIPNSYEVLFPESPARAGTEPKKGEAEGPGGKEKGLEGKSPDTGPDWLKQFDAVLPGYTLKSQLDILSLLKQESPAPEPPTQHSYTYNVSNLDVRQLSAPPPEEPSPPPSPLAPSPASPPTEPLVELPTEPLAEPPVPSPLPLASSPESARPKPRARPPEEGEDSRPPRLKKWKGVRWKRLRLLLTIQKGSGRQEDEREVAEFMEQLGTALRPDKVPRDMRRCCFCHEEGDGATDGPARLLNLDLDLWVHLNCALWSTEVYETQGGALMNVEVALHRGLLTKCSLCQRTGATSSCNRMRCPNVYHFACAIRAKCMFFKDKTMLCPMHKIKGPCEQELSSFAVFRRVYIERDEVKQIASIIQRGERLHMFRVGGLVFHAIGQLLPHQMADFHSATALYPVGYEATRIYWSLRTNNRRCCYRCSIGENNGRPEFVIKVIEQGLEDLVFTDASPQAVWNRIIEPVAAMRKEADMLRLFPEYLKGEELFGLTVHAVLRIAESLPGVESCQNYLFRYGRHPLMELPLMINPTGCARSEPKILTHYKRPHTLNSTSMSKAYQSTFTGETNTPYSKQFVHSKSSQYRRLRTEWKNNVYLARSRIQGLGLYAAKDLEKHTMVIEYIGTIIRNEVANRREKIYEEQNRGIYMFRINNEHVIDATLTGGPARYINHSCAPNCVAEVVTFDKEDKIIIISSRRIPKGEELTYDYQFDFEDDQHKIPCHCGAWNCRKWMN
UniProt Q02078: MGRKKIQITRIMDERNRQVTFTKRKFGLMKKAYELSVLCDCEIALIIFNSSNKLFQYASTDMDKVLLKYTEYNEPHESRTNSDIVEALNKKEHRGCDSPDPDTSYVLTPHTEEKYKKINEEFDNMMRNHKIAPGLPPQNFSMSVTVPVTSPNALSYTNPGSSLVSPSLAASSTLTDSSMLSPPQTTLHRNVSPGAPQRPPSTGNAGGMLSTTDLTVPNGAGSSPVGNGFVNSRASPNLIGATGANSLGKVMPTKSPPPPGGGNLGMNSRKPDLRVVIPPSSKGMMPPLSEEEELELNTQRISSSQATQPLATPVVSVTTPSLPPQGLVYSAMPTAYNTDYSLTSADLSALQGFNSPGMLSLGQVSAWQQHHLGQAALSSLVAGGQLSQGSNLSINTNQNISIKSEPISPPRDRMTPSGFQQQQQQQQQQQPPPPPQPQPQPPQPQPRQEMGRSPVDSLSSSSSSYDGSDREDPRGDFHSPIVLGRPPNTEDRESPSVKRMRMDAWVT

No constants are given. Whether binding was seen depends on the method and setting. In cells and extracts the contact can be indirect. Some results given as binding are weak or reduced against the parent protein; the word gives no strength.

This assay has as its target histone-lysine N-methyltransferase 2D (KMT2D) (human (endogenous in SCC25)) (UniProt O14686). The experiment in a line: co-IP; 5 ug anti-KMT2D antibody (anti-IgG as control) added to SCC25 cell samples, Universal Magnetic co-IP kit (Active Motif 54002); MEF2A detected by immunoblotting.

For the substance MEF2A (from UniProt Q02078 1-507), the binding result is listed as “binds”.
